Measurements from article PMC8655793.
Results are given in words; binding and its absence hold for the method and conditions named. In cells and extracts the contact can be indirect. For some assays here: Binding calls can cover weak binding; strength is not graded here.

Chains of the proteins cited; added tags and fusions are not shown. Lines headed by an entry give the natural chain unless they say otherwise; changes in a name come on top.
UniProt Q8WQB3: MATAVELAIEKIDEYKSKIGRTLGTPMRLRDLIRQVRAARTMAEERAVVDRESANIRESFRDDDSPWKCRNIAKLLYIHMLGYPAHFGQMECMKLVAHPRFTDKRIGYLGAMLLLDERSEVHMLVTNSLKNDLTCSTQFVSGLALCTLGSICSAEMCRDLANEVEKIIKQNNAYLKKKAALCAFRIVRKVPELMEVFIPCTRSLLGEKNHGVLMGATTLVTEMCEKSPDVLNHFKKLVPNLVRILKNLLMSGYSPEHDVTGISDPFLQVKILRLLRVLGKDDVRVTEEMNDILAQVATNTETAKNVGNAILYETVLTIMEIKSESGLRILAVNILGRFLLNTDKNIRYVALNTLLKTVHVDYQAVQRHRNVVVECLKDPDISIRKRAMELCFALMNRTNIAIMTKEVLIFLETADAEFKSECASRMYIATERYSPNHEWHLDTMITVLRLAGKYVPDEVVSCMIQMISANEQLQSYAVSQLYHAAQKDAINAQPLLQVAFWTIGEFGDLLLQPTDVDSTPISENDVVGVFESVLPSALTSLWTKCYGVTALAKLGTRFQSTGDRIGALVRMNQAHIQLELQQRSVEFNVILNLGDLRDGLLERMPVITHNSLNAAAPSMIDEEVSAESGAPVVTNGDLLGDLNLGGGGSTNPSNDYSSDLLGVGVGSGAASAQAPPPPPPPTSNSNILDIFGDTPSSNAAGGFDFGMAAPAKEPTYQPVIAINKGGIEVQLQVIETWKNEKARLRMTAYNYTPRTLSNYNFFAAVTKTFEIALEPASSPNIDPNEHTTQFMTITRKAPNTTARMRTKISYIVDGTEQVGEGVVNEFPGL
UniProt P34574: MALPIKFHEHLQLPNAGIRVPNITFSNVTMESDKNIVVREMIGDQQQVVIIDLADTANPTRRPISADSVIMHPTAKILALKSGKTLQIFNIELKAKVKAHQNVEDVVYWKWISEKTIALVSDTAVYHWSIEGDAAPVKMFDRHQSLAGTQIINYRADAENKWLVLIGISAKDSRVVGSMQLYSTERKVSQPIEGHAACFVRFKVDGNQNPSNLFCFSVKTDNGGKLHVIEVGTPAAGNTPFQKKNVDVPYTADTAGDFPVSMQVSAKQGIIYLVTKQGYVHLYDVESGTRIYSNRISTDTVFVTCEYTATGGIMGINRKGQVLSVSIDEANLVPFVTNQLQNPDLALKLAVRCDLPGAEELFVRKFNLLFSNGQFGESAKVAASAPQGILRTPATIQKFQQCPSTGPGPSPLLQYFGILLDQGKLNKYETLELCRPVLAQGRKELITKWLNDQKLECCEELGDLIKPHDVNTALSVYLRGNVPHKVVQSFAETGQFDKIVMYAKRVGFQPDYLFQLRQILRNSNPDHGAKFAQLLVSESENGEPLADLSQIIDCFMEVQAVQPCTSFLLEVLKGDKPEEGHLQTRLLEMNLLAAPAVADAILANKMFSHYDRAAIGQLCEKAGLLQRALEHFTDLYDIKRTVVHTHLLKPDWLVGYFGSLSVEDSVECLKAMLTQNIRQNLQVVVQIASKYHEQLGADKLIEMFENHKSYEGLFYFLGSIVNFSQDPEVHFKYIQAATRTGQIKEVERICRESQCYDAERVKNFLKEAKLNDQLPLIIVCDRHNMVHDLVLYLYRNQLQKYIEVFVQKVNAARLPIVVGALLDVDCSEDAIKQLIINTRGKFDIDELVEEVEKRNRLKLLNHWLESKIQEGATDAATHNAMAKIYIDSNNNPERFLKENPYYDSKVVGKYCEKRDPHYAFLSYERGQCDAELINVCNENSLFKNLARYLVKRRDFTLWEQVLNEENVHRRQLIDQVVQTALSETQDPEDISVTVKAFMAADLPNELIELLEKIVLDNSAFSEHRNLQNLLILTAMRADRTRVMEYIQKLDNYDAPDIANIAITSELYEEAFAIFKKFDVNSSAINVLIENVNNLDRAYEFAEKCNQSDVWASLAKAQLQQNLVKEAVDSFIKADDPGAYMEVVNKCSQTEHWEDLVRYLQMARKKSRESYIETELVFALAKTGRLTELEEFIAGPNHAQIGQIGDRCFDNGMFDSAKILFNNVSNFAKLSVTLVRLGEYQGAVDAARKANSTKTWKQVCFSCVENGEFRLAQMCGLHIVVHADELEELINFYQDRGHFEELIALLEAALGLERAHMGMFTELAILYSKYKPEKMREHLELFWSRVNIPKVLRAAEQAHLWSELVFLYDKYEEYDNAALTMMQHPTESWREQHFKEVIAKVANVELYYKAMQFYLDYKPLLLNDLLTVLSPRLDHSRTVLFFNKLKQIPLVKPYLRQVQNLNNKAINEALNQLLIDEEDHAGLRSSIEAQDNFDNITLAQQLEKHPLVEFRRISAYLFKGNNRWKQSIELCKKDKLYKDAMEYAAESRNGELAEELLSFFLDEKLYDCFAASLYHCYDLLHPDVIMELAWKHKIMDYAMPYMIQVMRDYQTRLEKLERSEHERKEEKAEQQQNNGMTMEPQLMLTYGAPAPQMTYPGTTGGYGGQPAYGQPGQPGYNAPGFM

Assays:
[1] = target: GST-APG-1 (AP-1 gamma subunit) (C. elegans) (UniProt Q8WQB3); assay: pull-down; GST pull-down with in vitro translated HA-tagged proteins, read by Western blot; only the target purified
[2] = target: CHC-1 (clathrin heavy chain) (C. elegans) (UniProt P34574); assay: as above

binding [1]: binds | binding [2]: no binding
Substance: HA-SMAP-1 (stromal membrane-associated protein-1) (from UniProt O18181)
